From doi:10.1101/2020.07.04.187922
For at least one entry, the source does not settle the construct or the ends of the probe. At least one verdict was read from the data and is not stated in words by the source.

What was measured:
Experiment in all cases: EMSA
[1] = test system: GST-NtERF130 (Nicotiana tabacum)
[2] = test system: GST-NtERF29 (Nicotiana tabacum)
[3] = test system: GST-NtERF199 (Nicotiana tabacum)
[4] = test system: GST-NtERF16 (Nicotiana tabacum)

Measured: binding result

CTCTATTATATCGAGTTGCGCCCTCCACTCCTCGGTGTC (double strand) [NtPMT2 probe]
binds: all assays above

GTTTGTAAGCACTCCAGCCATGTTAATGGAGTGC (double strand) [NtQPT2 probe]
binds: all assays above
